Measurements published in patent US20170204176A1.
These are yes or no findings as the source states them, for the method shown. Some binding calls cover weakened binding; strength is not graded here.

The chains behind the UniProt entries cited, without tags or fusion partners. Where a name states a change or a piece, a line headed by the entry shows the natural chain unless it says otherwise.
UniProt O14763: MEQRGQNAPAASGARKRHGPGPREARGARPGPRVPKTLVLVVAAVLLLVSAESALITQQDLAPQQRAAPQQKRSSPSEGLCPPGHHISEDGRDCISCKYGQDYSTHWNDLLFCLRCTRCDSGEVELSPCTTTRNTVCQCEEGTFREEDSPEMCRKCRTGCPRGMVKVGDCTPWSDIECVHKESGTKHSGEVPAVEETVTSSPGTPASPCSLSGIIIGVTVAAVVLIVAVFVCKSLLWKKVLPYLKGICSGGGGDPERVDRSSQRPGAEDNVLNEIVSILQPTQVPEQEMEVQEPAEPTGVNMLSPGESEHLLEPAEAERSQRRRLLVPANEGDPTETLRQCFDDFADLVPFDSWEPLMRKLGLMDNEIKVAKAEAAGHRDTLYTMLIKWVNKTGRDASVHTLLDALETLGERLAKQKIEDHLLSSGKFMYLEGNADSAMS

Legend:
[1] = biological target: human DR5-Fc fusion protein (human) (UniProt O14763); test: competition ELISA on DR5-Fc fusion coat
[2] = biological target: human DR5-Fc fusion protein (human) (UniProt O14763); test: ELISA on DR5-Fc fusion coat with or without TRAIL-His
human DR5 (human) = human DR5 (human) (UniProt O14763); test: titration with fluorescence readout (y axis: Log MFI); the text does not describe the assay format

Measured: binding

B1: DR5 mAb 1 (antibody, V domains shown)
VH: EVKFLESGGGLVQPGGSLKLSCVASGFDFSRYWMSWVRQAPGKGLEWIGEINPDSNTINYTPSLKDKFIISRDNAKNTLYLQMTKVRSEDTALYYCTRRAYYGNPAWFAYWGQGTLVTVSS
VL: DIVLTQSPASLAVSLGQRATISCRASKSVSSSGYSYMHWYQQKPGQPPKVLIFLSSNLDSGVPARFSGSGSGTDFTLNIHPVEDGDAATYYCQHSRDLPPTFGGGTKLEIK
binds: all assays above

B2: DR5 mAb 2 (antibody, V domains shown)
VH: KVQLQQSGAELVKPGASVKLSCKASGYTFTEYILHWVKQKSGQGLEWIGWFYPGNNNIKYNEKFKDKATLTADKSSSTVYMELSRLTSEDSAVYFCARHEQGPGYFDYWGQGTTLTVSS
VL: DIVMTQSHKFMSTSVGDRVSITCKASQDVNTAVAWYQQKPGQSPKLLIYWASTRHTGVPDRFTGSGSGTDYTLTIKSVQAEDLTLYYCQQHYITPWTFGGGTKLEIK
binds: all assays above
